Some of these results come from one statement about several compounds together.
Assay: Test Example 2: presence of prodrug in mouse and absorbency, caudal vein administration, plasma AUC
Type: in vivo, mice (Balb/cA, male)
Settings: caudal vein administration of disodium salts
Experimental: The dosage amounts of a disodium salt of the compound of Example 1, a disodium salt of the compound of Example 2, a disodium salt of the compound of Example 3, a disodium salt of the compound of Example 4 and a disodium salt of the compound of Example 5 were set to be 26 mg/5 mL/kg, 12 mg/5 mL/kg, 12 mg/5 mL/kg, 12 mg/5 mL/kg, and 11 mg/5 mL/kg, respectively. Solutions for administration were prepared by dissolving the compounds in physiological saline so as to satisfy the above dosage amounts, respectively. Note that solutions for administration of disodium salts of the compounds of Examples 1 to 4 were prepared by adding 2 molar equivalents of sodium hydroxide.
Mice (Balb/cA, male) not fasted were each immobilized on a specific fixed table, sterilized with ethanol for disinfection. Each of the solutions prepared above was administered through the caudal vein by use of a syringe and a needle. […]
The blood sampled were immediately centrifuged (13000 rpm, 2 minutes, 4° C.) to prepare the plasma samples. After proteins were removed from the plasma samples, the concentrations of the test compound in the plasma samples were measured by LC/MS/MS.
The value of AUC was calculated using analysis software such as Phoenix (registered trademark), WinNonlin (registered trademark). […]

SMILES | presence of prodrug in mouse (conversion into active compound)
Nc1ncnc2c1c(I)cn2[C@@H]1O[C@H](COP(=O)(O)O)[C@@H](O)[C@@H]1F [Example 2, ((2R,3R,4S,5R)-5-(4-amino-5-iodo-7H-pyrrolo[2,3-d]pyrimidin-7-yl)-4-fluoro-3-hydroxytetrahydrofuran-2-yl)methyl dihydrogen phosphate] | prodrugs of the compound (I form) of Comparative Example 2
Nc1ncnc2c1c(I)cn2[C@@H]1O[C@H](CO)C(OP(=O)(O)O)C1F (stereo partly drawn) [Example 4, (2R,3R,4S,5R)-5-(4-amino-5-iodo-7H-pyrrolo[2,3-d]pyrimidin-7-yl)-4-fluoro-2-(hydroxymethyl) tetrahydrofuran-3-yl dihydrogen phosphate] | prodrugs of the compound (I form) of Comparative Example 2

From US20220267365A1, “NOVEL PHOSPHATE ESTER COMPOUND HAVING PYRROLOPYRIMIDINE SKELETON OR PHARMACEUTICALLY ACCEPTABLE SALT THEREOF” (TAIHO PHARMACEUTICAL CO., LTD., priority 2019, published 2022)
